Measurements from patent US20250025582A1, “LIGANDS AND THEIR USE” (THE UNIVERSITY OF SYDNEY, priority 2020, published 2025).

Assays:
[1] = Complex formation on exposure to Lu(III), analysed by LC-MS/ESI-MS; assay type: physicochemical; conditions: ESI-MS analysis
[2] = Complex formation on exposure to Zr(IV), analysed by LC-MS/ESI-MS; assay type: physicochemical; conditions: ESI-MS analysis

| Compound | number of chelating ligands of the compound forming a complex with the metal ion [1] | number of chelating ligands of the compound forming a complex with the metal ion [2] |
| --- | --- | --- |
| CC(=O)N(O)CCCCCNC(=O)CCC(=O)N(O)CCCCCNC(=O)CCC(=O)N(O)CCCCCNC(=O)CN1CCN(CC(=O)O)CCN(CC(=O)O)CCN(CC(=O)O)CC1 [DFOB-DOTA (2), DFOB-DOTA] | only one of the two chelating ligands | only one of the two chelating ligands |
| CC(=O)N(O)CCCCCNC(=O)CCC(=O)N(O)CCCCCNC(=O)CCC(=O)N(O)CCCCCNC(=O)[C@@H](N)CCCCNC(=O)CN1CCN(CC(=O)O)CCN(CC(=O)O)CCN(CC(=O)O)CC1 [DFOB-L-LYS-DOTA (3), DFOB-L-LYS-DOTA] | only one of the two chelating ligands | only one of the two chelating ligands |
